Source: patent publication US20020058266A1, “EF-Tu protein encoded on the plastid DNA of the malaria parasite and protein synthesis inhibitors effective as anti-malarial compounds” (priority 1997, published 2002)
For at least one compound, name, drawing or mass did not settle the structure.

Tested on: erythrocytic stages of P.falciparum
Experiment: Incorporation of radiotracers (3H-hypoxanthine, 14C-isoleucine) by P.falciparum growing in blood cultures
Format: cell-based, Plasmodium falciparum
Method: Antibiotics—Samples of Mocimycin (kirromycin), Aurodox (N-methylated kirromycin), and Efrotomycin (a glycoside of kirromycin) were used. Aurodox was dissolved in RPMI-Albumax medium (Grande et al 1977), kirromycin was dissolved in RPMI made alkaline by addition of 1M NaOH, and efrotomycin was dissolved in ethanol before dilution in culture medium. Enacyloxin IIA was dissolved in 1% NaHCO3 prior to dilution in RPMI-Albumax medium. The antibiotic GE2270A was dissolved in 100% DMSO before dilution in culture medium. Fusidic acid (Sigma) was dissolved directly in culture medium, and thiostrepton (Sigma) in 100% DMSO before dilution in culture medium. A hemisuccinate form of thiostrepton was prepared as a potassium salt, according to Bodanszky et al 1965. Incorporation of radiotracers by P.falciparum growing in blood cultures in the presence and absence of drugs was carried out as described (Strath et al 1993).
Kirromycin: Kirromycin-resistant forms of bacterial EF-Tu are modified at one of seven amino acids along the opposing interfaces of domains I and III (Mesters et al 1994 and Abdulkarim et al 1994) and Pf EF-Tupl has a substitution at one of these sites (A375S-E.coli numbers) that could potentially confer resistance to kirromycin. […]

## CN(C)[C@@H]1C(O)=C(C(N)=O)C(=O)[C@@]2(O)C(O)=C3C(=O)c4c(O)cccc4[C@@](C)(O)[C@H]3C[C@@H]12 [tetracycline]
  onset of inhibition of protein synthesis: 8 h
